# Experimental data taken from patent US20260250402A1 (C O INMAGENE PTE, published 2026).
# Residue numbers refer to the chain shown, from its start. No constants are given. Whether binding was seen depends on the method and setting. Some results given as binding are weak or reduced against the parent protein; the word gives no strength. For some of these results: Sequences can lack the tags named with a protein.
# T1: Human his-tag IL-7Ra protein (human, UniProt P16871 21-239)
# T1 construct: Construct not described; Position of the tag unknown; also called IL-7Ra (Biacore analyte); not shown: his tag
# T1 sequence: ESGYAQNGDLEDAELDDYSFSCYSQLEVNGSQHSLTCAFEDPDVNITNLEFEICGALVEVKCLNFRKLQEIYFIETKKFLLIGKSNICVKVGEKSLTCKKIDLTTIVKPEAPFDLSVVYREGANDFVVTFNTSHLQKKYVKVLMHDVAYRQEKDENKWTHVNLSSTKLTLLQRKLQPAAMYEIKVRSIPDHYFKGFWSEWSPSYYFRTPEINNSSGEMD
# T2: cynomolgus Fc-tag IL-7Ra protein (cynomolgus, UniProt Q38IC7 21-240)
# T2 construct: also called cynomolgus IL-7Ra protein; not shown: Fc tag
# T2 sequence: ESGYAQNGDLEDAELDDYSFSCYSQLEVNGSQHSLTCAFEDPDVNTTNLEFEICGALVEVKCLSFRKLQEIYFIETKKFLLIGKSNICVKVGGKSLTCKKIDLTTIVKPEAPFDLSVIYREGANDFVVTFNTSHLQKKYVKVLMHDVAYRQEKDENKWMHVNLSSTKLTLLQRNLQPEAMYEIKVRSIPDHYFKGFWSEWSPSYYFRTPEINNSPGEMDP
# T3: human Fc-tag IL-7Ra protein (human, UniProt P16871 21-239)
# T3 construct: also called human IL-7Ra protein; not shown: Fc tag fused to the N-terminus
# T3 sequence: T1 sequence
# B1: cmAb011 (chimeric Ab011) (antibody, V domains shown)
# VH: QVQLQQSGAELMRPGASVTLSCKTSGYRFTDYELHWVKQTPVRGLEWIGGIDPKTGGTAYNQKFKGKAILTSDRSSSTTYMELRSLASEDSAVYYCTRSGGRWYFDVWGTGTTVTVSS
# VL: DIVLTQSPASLAVSLGQRATISCRTSESVSIHLLHLMHWYQQKPGQPPKLLIYGASNLESGVPARFSGSGSETDFTLNIHPVEEEDAATYFCQQSIKDPYTFGGGTKLEIKR
# notes: also called chimeric antibody Ab011
# B2: ADX-914 (Tab1) (antibody, human IgG1, kappa, V domains shown)
# VH: EVQLVESGGGLVQPGRSLRLSCAASGFTFDDHAMHWVRQAPGKGLEWVSGISWNSRGIGYADSVKGRFTIFRDNAKNSLYLQMNSLRAEDTALYYCAKDEYSRGYYVLDVWGQGTTVTVSS
# VL: AIQLTQSPSSLSASVGDRVTITCRASQGISSALAWYQQKPGKAPKLLIYDASSLESGVPSRFSGSGSGTDFTLTISSLQPEDFATYYCQQFNSYPLWITFGQGTRLEIKR
# notes: also called benchmark antibody ADX-914
# B3: OSE127 (Tab2) (antibody, human IgG4 S228P, kappa, V domains shown)
# VH: QVQLVESGGGLVKPGGSLRLSCAVSGFTLSDYYMAWIRQAPGKGLEWVSTISASGLRTYYPDSVKGRFTISRDNAKNSLYLQMNSLRAEDTAVYYCARPLSAHYGFNYFDYWGQGTLVTVSS
# VL: DIQMTQSPSSLSASVGDRVTITCRTSEDIYQGLAWYQQKPGKAPKLLLYSANTLHIGVPSRFSGSGSGTDYTLTISSLQPEDFATYYCQQYYDYPLAFGGGTKVEIKR
# notes: also called benchmark antibody OSE127
# B4: HuAb003 (antibody, V domains shown)
# VH: QVQLVQSGAEVKKPGASVKVSCKASGYRFTDYELHWVRQAPGQGLEWMGGIDPKTGGTAYNQKFKGRVTMTRDTSTSTVYMELSSLRSEDTAVYYCARSGGRWYFDVWGQGTTVTVSS
# VL: DIVMTQSPDSLAVSLGERATINCRTSESVSIHLLHLMHWYQQKPGQPPKLLIYGASNLESGVPDRFSGSGSGTDFTLTISSLQAEDVAVYYCQQSIKDPYTFGGGTKVEIK
# notes: Humanized version of cmAb011; also called humanized VL3 / humanized VH1
# B5: HuAb004 (antibody, V domains shown)
# VH: B4 VH
# VL: B4 VL with M4L, G72E
# notes: Humanized version of cmAb011; also called humanized VL4 / humanized VH1
# B6: HuAb005 (antibody, V domains shown)
# VH: B4 VH with R72S, T74R
# VL: DIVLTQSPASLAVSPGQRATITCRTSESVSIHLLHLMHWYQQKPGQPPKLLIYGASNLESGVPARFSGSGSGTDFTLTINPVEAEDTANYYCQQSIKDPYTFGGGTKVEIK
# notes: Humanized version of cmAb011; also called humanized VL1 / humanized VH2
# B7: HuAb008 (antibody, V domains shown)
# VH: B4 VH with R72S, T74R
# VL: B4 VL with M4L, G72E
# notes: Humanized version of cmAb011; also called humanized VL4 / humanized VH2
# B8: HuAb009 (antibody, V domains shown)
# VH: B4 VH with R38K, M48I, R72S, T74R
# VL: B6 VL
# notes: Humanized version of cmAb011; also called humanized VL1 / humanized VH3
# B9: HuAb013 (antibody, V domains shown)
# VH: B4 VH with R67K, M70L, R72S, T74R
# VL: B6 VL
# notes: Humanized version of cmAb011; also called humanized VL1 / humanized VH4
# Columns and labels:
# [1] = target: T1, Human his-tag IL-7Ra protein; assay: SPR Biacore 8K, antibody Fc-captured, human his-tag IL-7Ra analyte
# [2] = target: cynomolgus IL-7Ra expressed on CHOK1-cyno IL-7Ra cells (cynomolgus) (UniProt Q38IC7); assay: flow cytometry on CHOK1-cyno IL-7Ra cells, MFI (upper right panel)
# [3] = target: T2, cynomolgus Fc-tag IL-7Ra protein; assay: ELISA, cynomolgus Fc-tag IL-7Ra protein, HRP-labelled secondary antibody, OD 450 (right panel)
# [4] = target: human IL-7Ra expressed on CHOK1-human IL-7Ra cells (human) (UniProt P16871); assay: flow cytometry blocking assay: binding of hIL-7-his to CHOK1-human IL-7Ra cells in the presence of the antibody, MFI (right panel)
# [5] = target: cynomolgus IL-7Ra expressed on CHOK1-cyno IL-7Ra cells (cynomolgus) (UniProt Q38IC7); assay: flow cytometry, CHOK1-cyno IL-7Ra cells
# [6] = target: human IL-7Ra expressed on CHOK1-human IL-7Ra cells (human) (UniProt P16871); assay: flow cytometry on CHOK1-human IL-7Ra cells, MFI (upper left panel)
# [7] = target: T3, human Fc-tag IL-7Ra protein; assay: ELISA, plate-coated Fc-tag IL-7Ra protein
# [8] = target: T2, cynomolgus Fc-tag IL-7Ra protein; assay: ELISA, plate-coated Fc-tag IL-7Ra protein
# [9] = target: human IL-7Ra expressed on CHOK1-human IL-7Ra cells (human) (UniProt P16871); assay: flow cytometry, CHOK1-human IL-7Ra cells
# [10] = target: human IL-7Ra expressed on CHOK1-human IL-7Ra cells (human) (UniProt P16871); assay: flow cytometry blocking assay: binding of hIL-7-his to CHOK1-human IL-7Ra cells in the presence of the antibody, MFI (left panel)
# [11] = target: human IL-7Ra expressed on CHOK1-human IL-7Ra cells (human) (UniProt P16871); assay: flow cytometry blocking assay: binding of hIL-7-his (0.1 ug/ml) to CHOK1-human IL-7Ra cells in the presence of the antibody, anti-His Alexa Fluor 488, MFI (left panel)
# [12] = target: T3, human Fc-tag IL-7Ra protein; assay: ELISA, plate coated with human Fc-tag IL-7Ra protein, HRP-labelled secondary antibody, OD 450 (left panel)
binder,measurement,setting,value
B1,binding,[1],binds
same,binding,[2],binds
same,binding,[3],binds
same,binding,[4],binds
same,binding,[5],binds
same,binding,[6],binds
same,binding,[7],binds
same,binding,[8],binds
same,binding,[9],binds
same,binding,[10],binds
same,binding,[11],binds
same,binding,[12],binds
B2,binding,[1],binds
same,binding,[3],binds
same,binding,[7],binds
same,binding,[8],binds
same,binding,[12],binds
B3,binding,[3],binds
same,binding,[8],binds
B4,binding,[1],binds
B5,binding,[1],binds
B6,binding,[1],binds
B7,binding,[1],binds
B8,binding,[1],binds
B9,binding,[1],binds
